In doi:10.1101/2021.04.25.441346 (bioRxiv, 2021):

Experiments:
[1] = target: T1, YFP-ARF19 (AUXIN RESPONSE FACTOR 19) (Arabidopsis thaliana) (UniProt Q8RYC8); experiment: co-IP
T1 sequence: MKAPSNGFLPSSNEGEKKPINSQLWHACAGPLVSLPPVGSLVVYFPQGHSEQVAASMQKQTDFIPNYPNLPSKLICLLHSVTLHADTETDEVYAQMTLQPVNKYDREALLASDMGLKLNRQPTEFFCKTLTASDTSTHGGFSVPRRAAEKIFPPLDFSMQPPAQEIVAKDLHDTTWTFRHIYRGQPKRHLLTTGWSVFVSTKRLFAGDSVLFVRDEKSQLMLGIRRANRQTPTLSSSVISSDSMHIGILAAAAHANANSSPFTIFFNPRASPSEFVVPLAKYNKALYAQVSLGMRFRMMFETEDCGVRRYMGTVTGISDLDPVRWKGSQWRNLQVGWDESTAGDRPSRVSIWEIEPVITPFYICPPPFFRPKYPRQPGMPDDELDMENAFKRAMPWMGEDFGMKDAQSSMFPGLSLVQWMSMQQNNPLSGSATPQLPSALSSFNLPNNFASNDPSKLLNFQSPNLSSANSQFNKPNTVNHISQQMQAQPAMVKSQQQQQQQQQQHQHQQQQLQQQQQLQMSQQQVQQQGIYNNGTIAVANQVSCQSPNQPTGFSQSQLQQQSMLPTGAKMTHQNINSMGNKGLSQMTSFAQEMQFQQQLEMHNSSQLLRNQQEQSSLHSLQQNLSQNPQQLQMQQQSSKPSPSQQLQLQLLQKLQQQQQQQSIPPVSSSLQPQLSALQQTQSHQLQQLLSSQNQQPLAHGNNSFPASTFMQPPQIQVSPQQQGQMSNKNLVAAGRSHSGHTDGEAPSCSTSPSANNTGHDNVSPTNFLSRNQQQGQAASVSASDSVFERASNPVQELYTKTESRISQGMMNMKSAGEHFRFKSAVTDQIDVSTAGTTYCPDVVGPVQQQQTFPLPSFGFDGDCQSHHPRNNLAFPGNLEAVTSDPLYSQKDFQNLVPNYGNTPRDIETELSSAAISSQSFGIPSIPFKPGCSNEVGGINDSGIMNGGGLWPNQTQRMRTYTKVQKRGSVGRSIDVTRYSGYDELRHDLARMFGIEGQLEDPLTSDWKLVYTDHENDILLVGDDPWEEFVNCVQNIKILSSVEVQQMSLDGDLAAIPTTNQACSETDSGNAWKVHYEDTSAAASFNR

[2] = target: T2, ARF7-HA (AUXIN RESPONSE FACTOR 7) (Arabidopsis thaliana) (UniProt P93022); experiment: co-IP
T2 sequence: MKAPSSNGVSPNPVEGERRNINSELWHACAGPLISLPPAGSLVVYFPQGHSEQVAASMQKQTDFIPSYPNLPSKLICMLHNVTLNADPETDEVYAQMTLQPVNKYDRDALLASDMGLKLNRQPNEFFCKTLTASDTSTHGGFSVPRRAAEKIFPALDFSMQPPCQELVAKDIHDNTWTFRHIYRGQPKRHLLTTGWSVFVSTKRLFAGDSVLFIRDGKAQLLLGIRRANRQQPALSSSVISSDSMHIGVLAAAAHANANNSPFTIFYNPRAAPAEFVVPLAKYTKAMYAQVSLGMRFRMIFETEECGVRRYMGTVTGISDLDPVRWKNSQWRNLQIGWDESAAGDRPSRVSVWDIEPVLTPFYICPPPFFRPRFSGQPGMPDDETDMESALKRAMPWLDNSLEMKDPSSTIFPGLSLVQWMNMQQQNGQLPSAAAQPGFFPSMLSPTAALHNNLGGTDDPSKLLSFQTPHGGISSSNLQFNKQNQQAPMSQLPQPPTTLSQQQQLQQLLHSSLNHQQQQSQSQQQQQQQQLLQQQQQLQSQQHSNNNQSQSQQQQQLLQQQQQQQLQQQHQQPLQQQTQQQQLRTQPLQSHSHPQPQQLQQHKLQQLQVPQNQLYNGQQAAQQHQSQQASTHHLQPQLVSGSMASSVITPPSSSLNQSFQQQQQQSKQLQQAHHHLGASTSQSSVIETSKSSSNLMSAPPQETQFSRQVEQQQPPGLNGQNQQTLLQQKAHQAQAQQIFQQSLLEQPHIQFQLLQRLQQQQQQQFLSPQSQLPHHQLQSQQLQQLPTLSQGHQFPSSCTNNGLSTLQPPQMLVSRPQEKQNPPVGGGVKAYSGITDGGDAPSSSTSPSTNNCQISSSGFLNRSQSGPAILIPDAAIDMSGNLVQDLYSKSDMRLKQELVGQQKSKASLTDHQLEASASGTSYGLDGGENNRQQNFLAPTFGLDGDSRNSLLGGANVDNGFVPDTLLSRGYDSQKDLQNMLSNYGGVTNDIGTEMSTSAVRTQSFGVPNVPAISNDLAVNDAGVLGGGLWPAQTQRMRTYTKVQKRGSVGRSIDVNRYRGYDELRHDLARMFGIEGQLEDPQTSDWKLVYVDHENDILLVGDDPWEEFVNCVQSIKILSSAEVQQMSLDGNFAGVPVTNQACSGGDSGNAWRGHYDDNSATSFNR

[3] = target: T3, ARF19 BiFC fusion (nEYFP-ARF19 and cEYFP-ARF19) (Arabidopsis thaliana) (UniProt Q8RYC8); experiment: split reporter
T3 sequence: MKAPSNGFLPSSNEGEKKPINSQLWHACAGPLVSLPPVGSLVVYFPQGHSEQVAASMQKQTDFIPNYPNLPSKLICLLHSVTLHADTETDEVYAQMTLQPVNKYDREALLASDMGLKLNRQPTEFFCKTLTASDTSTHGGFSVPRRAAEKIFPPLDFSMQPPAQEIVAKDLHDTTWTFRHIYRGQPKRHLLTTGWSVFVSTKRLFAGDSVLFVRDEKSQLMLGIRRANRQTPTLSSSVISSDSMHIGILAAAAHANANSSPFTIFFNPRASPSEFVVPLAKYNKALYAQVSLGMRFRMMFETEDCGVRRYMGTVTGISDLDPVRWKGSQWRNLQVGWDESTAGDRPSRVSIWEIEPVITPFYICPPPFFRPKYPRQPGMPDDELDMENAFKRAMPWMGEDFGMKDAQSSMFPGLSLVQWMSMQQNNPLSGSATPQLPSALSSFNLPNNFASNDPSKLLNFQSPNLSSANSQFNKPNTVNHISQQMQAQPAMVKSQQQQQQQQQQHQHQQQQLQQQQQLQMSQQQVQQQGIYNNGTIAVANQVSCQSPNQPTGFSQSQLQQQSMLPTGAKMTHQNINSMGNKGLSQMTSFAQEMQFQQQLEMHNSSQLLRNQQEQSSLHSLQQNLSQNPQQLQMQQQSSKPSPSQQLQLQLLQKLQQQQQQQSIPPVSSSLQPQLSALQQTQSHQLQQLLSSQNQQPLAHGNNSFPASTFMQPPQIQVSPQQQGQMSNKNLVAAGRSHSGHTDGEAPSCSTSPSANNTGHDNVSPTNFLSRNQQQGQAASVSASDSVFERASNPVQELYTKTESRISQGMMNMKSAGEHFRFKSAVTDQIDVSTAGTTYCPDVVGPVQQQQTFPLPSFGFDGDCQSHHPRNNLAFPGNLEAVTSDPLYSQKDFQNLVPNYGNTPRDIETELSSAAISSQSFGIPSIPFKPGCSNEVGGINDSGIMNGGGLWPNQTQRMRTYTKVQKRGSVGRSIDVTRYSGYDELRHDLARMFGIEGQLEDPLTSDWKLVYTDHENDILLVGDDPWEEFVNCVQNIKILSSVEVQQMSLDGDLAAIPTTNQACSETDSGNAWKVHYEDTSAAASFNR

[4] = target: GST-ΔF-box-AFF1 (Arabidopsis thaliana); experiment: pull-down

binding [1]: binds
binding [2]: binds
Molecule: GST-ΔF-box-AFF1 (Arabidopsis thaliana) (domain or fragment)

binding [3]: binds
Molecule: nEYFP-ΔF-box-AFF1 (Arabidopsis thaliana) (domain or fragment)

binding [4]: binds
B1: YFP-ARF19 (AUXIN RESPONSE FACTOR 19) (protein, UniProt Q8RYC8 1-1086)
chain: MKAPSNGFLPSSNEGEKKPINSQLWHACAGPLVSLPPVGSLVVYFPQGHSEQVAASMQKQTDFIPNYPNLPSKLICLLHSVTLHADTETDEVYAQMTLQPVNKYDREALLASDMGLKLNRQPTEFFCKTLTASDTSTHGGFSVPRRAAEKIFPPLDFSMQPPAQEIVAKDLHDTTWTFRHIYRGQPKRHLLTTGWSVFVSTKRLFAGDSVLFVRDEKSQLMLGIRRANRQTPTLSSSVISSDSMHIGILAAAAHANANSSPFTIFFNPRASPSEFVVPLAKYNKALYAQVSLGMRFRMMFETEDCGVRRYMGTVTGISDLDPVRWKGSQWRNLQVGWDESTAGDRPSRVSIWEIEPVITPFYICPPPFFRPKYPRQPGMPDDELDMENAFKRAMPWMGEDFGMKDAQSSMFPGLSLVQWMSMQQNNPLSGSATPQLPSALSSFNLPNNFASNDPSKLLNFQSPNLSSANSQFNKPNTVNHISQQMQAQPAMVKSQQQQQQQQQQHQHQQQQLQQQQQLQMSQQQVQQQGIYNNGTIAVANQVSCQSPNQPTGFSQSQLQQQSMLPTGAKMTHQNINSMGNKGLSQMTSFAQEMQFQQQLEMHNSSQLLRNQQEQSSLHSLQQNLSQNPQQLQMQQQSSKPSPSQQLQLQLLQKLQQQQQQQSIPPVSSSLQPQLSALQQTQSHQLQQLLSSQNQQPLAHGNNSFPASTFMQPPQIQVSPQQQGQMSNKNLVAAGRSHSGHTDGEAPSCSTSPSANNTGHDNVSPTNFLSRNQQQGQAASVSASDSVFERASNPVQELYTKTESRISQGMMNMKSAGEHFRFKSAVTDQIDVSTAGTTYCPDVVGPVQQQQTFPLPSFGFDGDCQSHHPRNNLAFPGNLEAVTSDPLYSQKDFQNLVPNYGNTPRDIETELSSAAISSQSFGIPSIPFKPGCSNEVGGINDSGIMNGGGLWPNQTQRMRTYTKVQKRGSVGRSIDVTRYSGYDELRHDLARMFGIEGQLEDPLTSDWKLVYTDHENDILLVGDDPWEEFVNCVQNIKILSSVEVQQMSLDGDLAAIPTTNQACSETDSGNAWKVHYEDTSAAASFNR

No constants are given. Whether binding was seen depends on the method and setting. In cells and extracts the contact can be indirect. Binding can be weak; no strength is given. Where a sequence is shown, tags or fusion partners need not be part of it. Each block holds one molecule with its values, some of them ahead of it.
